From the supplement of paper PMC8728848
Some of the results follow.

What was measured:
Assay in all cases: glycan array binding signal (z-score within array); higher = stronger binding
Conditions in all cases: glycan notation: IUPAC condensed, linker removed
Fuc(a1-2)Gal = target: Fuc(a1-2)Gal
How it was run: (§1)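 Negative Z-scores can be read as non-binding. The Z-score is calculated within each array and then averaged across arrays of one protein sequence at different concentrations or buffers and across linkers. Arrays, 3228 in all, were curated from the Consortium for Functional Glycomics database and kept only where the protein sequence was available.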

Fuc(a1-2)Gal(b1-3)GalNAc = target: Fuc(a1-2)Gal(b1-3)GalNAc
How it was run: as §1

[1] = target: Fuc(a1-2)Gal(b1-3)GalNAc(a1-3)[Fuc(a1-2)]Gal(b1-4)Glc
How it was run: as §1

[2] = target: Fuc(a1-2)Gal(b1-3)GalNAc(a1-3)[Fuc(a1-2)]Gal(b1-4)GlcNAc
How it was run: as §1

[3] = target: Fuc(a1-2)Gal(b1-3)GalNAc(b1-3)Gal
How it was run: as §1

[4] = target: Fuc(a1-2)Gal(b1-3)GalNAc(b1-3)Gal(a1-4)Gal(b1-4)Glc
How it was run: as §1

[5] = target: Fuc(a1-2)Gal(b1-3)GalNAc(b1-4)[Neu5Ac(a2-3)]Gal(b1-4)Glc
How it was run: as §1

Fuc(a1-2)Gal(b1-3)GlcNAc = target: Fuc(a1-2)Gal(b1-3)GlcNAc
How it was run: as §1

[6] = target: Fuc(a1-2)Gal(b1-3)GlcNAc(b1-2)Man(a1-3)[Fuc(a1-2)Gal(b1-3)GlcNAc(b1-2)Man(a1-6)]Man(b1-4)GlcNAc(b1-4)GlcNAc
How it was run: as §1

[7] = target: Fuc(a1-2)Gal(b1-3)GlcNAc(b1-2)Man(a1-3)[Fuc(a1-2)Gal(b1-3)GlcNAc(b1-2)Man(a1-6)]Man(b1-4)GlcNAc(b1-4)[Fuc(a1-6)]GlcNAc
How it was run: as §1

[8] = target: Fuc(a1-2)Gal(b1-3)GlcNAc(b1-3)Gal(b1-4)Glc
How it was run: as §1

[9] = target: Fuc(a1-2)Gal(b1-3)GlcNAc(b1-3)GalNAc
How it was run: as §1

[10] = target: Fuc(a1-2)Gal(b1-3)GlcNAc(b1-3)[Fuc(a1-2)Gal(b1-3)GlcNAc(b1-6)]GalNAc
How it was run: as §1

[11] = target: Fuc(a1-2)Gal(b1-3)GlcNAc(b1-3)[Gal(b1-4)GlcNAc(b1-6)]Gal(b1-4)Glc
How it was run: as §1

[12] = target: Fuc(a1-2)Gal(b1-3)GlcNAc(b1-3)[Neu5Ac(a2-6)Gal(b1-4)GlcNAc(b1-6)]Gal(b1-4)Glc
How it was run: as §1

[13] = target: Fuc(a1-2)Gal(b1-3)GlcNAc6S
How it was run: as §1

[14] = target: Fuc(a1-2)Gal(b1-3)[Fuc(a1-4)]GlcNAc
How it was run: as §1

[15] = target: Fuc(a1-2)Gal(b1-3)[Fuc(a1-4)]GlcNAc(b1-2)Man(a1-3)[Fuc(a1-2)Gal(b1-3)[Fuc(a1-4)]GlcNAc(b1-2)Man(a1-3)]Man(b1-4)GlcNAc(b1-4)GlcNAc
How it was run: as §1

[16] = target: Fuc(a1-2)Gal(b1-3)[Fuc(a1-4)]GlcNAc(b1-2)Man(a1-3)[Fuc(a1-2)Gal(b1-3)[Fuc(a1-4)]GlcNAc(b1-2)Man(a1-6)]Man(b1-4)GlcNAc(b1-4)[Fuc(a1-6)]GlcNAc(b1-4)[Fuc(a1-6)]GlcNAc
How it was run: as §1

[17] = target: Fuc(a1-2)Gal(b1-3)[Fuc(a1-4)]GlcNAc(b1-3)[Fuc(a1-3)[Gal(b1-4)]GlcNAc(b1-6)]Gal(b1-4)Glc
How it was run: as §1

[18] = target: Fuc(a1-2)Gal(b1-3)[Fuc(a1-4)]GlcNAc(b1-3)[Gal(b1-4)GlcNAc(b1-6)]Gal(b1-4)Glc
How it was run: as §1

[19] = target: Fuc(a1-2)Gal(b1-4)Fuc(a1-3)]GlcNAc(b1-2)Man(a1-3)[Fuc(a1-2)Gal(b1-4)[Fuc(a1-3)]GlcNAc(b1-2)Man(a1-6)]Man(b1-4)GlcNAc(b1-4)GlcNAc
How it was run: as §1

Fuc(a1-2)Gal(b1-4)Glc = target: Fuc(a1-2)Gal(b1-4)Glc
How it was run: as §1

Fuc(a1-2)Gal(b1-4)Glc6S = target: Fuc(a1-2)Gal(b1-4)Glc6S
How it was run: as §1

Fuc(a1-2)Gal(b1-4)GlcNAc = target: Fuc(a1-2)Gal(b1-4)GlcNAc
How it was run: as §1

[20] = target: Fuc(a1-2)Gal(b1-4)GlcNAc(b1-2)Man
How it was run: as §1

[21] = target: Fuc(a1-2)Gal(b1-4)GlcNAc(b1-2)Man(a1-3)[Fuc(a1-2)Gal(b1-4)GlcNAc(b1-2)Man(a1-6)]Man(b1-4)GlcNAc(b1-4)GlcNAc
How it was run: as §1

[22] = target: Fuc(a1-2)Gal(b1-4)GlcNAc(b1-2)Man(a1-3)[Fuc(a1-2)Gal(b1-4)GlcNAc(b1-2)Man(a1-6)]Man(b1-4)GlcNAc(b1-4)[Fuc(a1-6)]GlcNAc
How it was run: as §1

[23] = target: Fuc(a1-2)Gal(b1-4)GlcNAc(b1-2)[Fuc(a1-2)Gal(b1-4)GlcNAc(b1-4)]Man(a1-3)[Fuc(a1-2)Gal(b1-4)GlcNAc(b1-2)Man(a1-6)]Man(b1-4)GlcNAc(b1-4)GlcNAc
How it was run: as §1

[24] = target: Fuc(a1-2)Gal(b1-4)GlcNAc(b1-3)Gal(b1-4)GlcNAc
How it was run: as §1

B1: R2-fiber (Pseudomonas aeruginosa), Q9S576 (protein)
chain: HHHHHHKVAKDLVVSLAYQVRTEDGVLVDESPVSAPLDYLHGHGSLISGLETALEGHEVGDKFDVAVGANDAYGQYDENLVQRVPKDVFMGVDELQVGMRFLAETDQGPVPVEITAVEDDHVVVDGNHMLAGQNLKFNVEVVAIREATEEELAHGHVHGAHDHHHDHDHDGCCGGHGHDHGHEHGGEGCCGGKGNGGCGCHENLYFQGVTAGMALAATDIPGLDASKLVSGVLAEQRLPVFARGLATAVSNSSDPNTATVPLMLTNHANGPVAGRYFYIQSMFYPDQNGNASQIATSYNATSEMYVRVSYAANPSIREWLPWQRCDIGGSFTKEADGELPGGVNLDSMVTSGWWSQSFTAQAASGANYPIVRAGLLHVYAASSNFIYQTYQAYDGESFYFRCRHSNTWFPWRRMWHGGDFNPSDYLLKSGFYWNALPGKPATFPPSAHNHDVGQLTSGILPLARGGVGSNTAAGARSTIGAGVPATASLGASGWWRDNDTGLIRQWGQVTCPADADASITFPIPFPTLCLGGYANQTSAFHPGTDASTGFRGATTTTAVIRNGYFAQAVLSWEAFGR
Fuc(a1-2)Gal
  glycan array binding signal (z-score): -0.134
Fuc(a1-2)Gal(b1-3)GalNAc
  glycan array binding signal (z-score): 0.532
[1]
  glycan array binding signal (z-score): -1
[2]
  glycan array binding signal (z-score): 2.11
[3]
  glycan array binding signal (z-score): -0.634
[4]
  glycan array binding signal (z-score): -0.147
[5]
  glycan array binding signal (z-score): 0.336
Fuc(a1-2)Gal(b1-3)GlcNAc
  glycan array binding signal (z-score): -0.454
[6]
  glycan array binding signal (z-score): 0.526
[7]
  glycan array binding signal (z-score): -0.308
[8]
  glycan array binding signal (z-score): -0.316
[9]
  glycan array binding signal (z-score): -0.836
[10]
  glycan array binding signal (z-score): 0.948
[11]
  glycan array binding signal (z-score): 0.249
[12]
  glycan array binding signal (z-score): 0.37
[13]
  glycan array binding signal (z-score): -0.201
[14]
  glycan array binding signal (z-score): -0.102
[15]
  glycan array binding signal (z-score): 0.07
[16]
  glycan array binding signal (z-score): -0.029
[17]
  glycan array binding signal (z-score): -0.454
[18]
  glycan array binding signal (z-score): -0.131
[19]
  glycan array binding signal (z-score): -0.559
Fuc(a1-2)Gal(b1-4)Glc
  glycan array binding signal (z-score): -0.767
Fuc(a1-2)Gal(b1-4)Glc6S
  glycan array binding signal (z-score): -0.936
Fuc(a1-2)Gal(b1-4)GlcNAc
  glycan array binding signal (z-score): 0.297
[20]
  glycan array binding signal (z-score): -0.244
[21]
  glycan array binding signal (z-score): 1.44
[22]
  glycan array binding signal (z-score): 0.532
[23]
  glycan array binding signal (z-score): -0.046
[24]
  glycan array binding signal (z-score): -0.243
